According to US20230248004A1, “NOVEL ORGANIC FUNGICIDE FOR USE AGAINST FUSARIUM WILT” (Ecolution.Ag LLC, priority 2020, published 2023):

Assay: EBDC screen of banana flesh
Conditions: for EBDC content in banana flesh: as CS2, Zineb equivalent, MQL = 0.05 ppm; for EBDC Screen result in banana flesh: measured as CS2, Zineb equivalent, MDL = 0.03 ppm

Substance: ethylenebisdithiocarbamates [EBDC]
- EBDC content in banana flesh (sample Banana #1 (regular)): MQL)
- EBDC Screen result in banana flesh (sample Banana #1 (regular)): Detected
- EBDC content in banana flesh (sample Banana #2 (regular)): MQL)
- EBDC Screen result in banana flesh (sample Banana #2 (regular)): Detected
- EBDC Screen result in banana flesh (sample Banana #3 (regular)): Not detected
- EBDC Screen result in banana flesh (sample Banana (organic #1)): Not detected
- EBDC Screen result in banana flesh (sample Banana (organic #2)): Not detected
- EBDC Screen result in banana flesh (sample Banana (organic #3)): Not detected
